Values of other authors in patent US8501405B2, “Real-time sequencing methods and systems” (Pacific Biosciences of California, Inc., priority 2009, dated 2013).
Read-outs that look alike come from different tables or passages of the source.

[1] = DNA polymerases with reverse transcriptase activity, available values for DNA-dependent DNA polymerization

E. coli pol I: DNA polymerase with reverse transcriptase activity
Need primer to initiate [1]: yes

phi29: DNA polymerase with reverse transcriptase activity
Need primer to initiate [1]: yes

B1: Thermus thermophilus: DNA polymerase with reverse transcriptase activity (protein, UniProt P52028 1-834, looked up)
DNA polymerase I, thermostable: MEAMLPLFEPKGRVLLVDGHHLAYRTFFALKGLTTSRGEPVQAVYGFAKSLLKALKEDGYKAVFVVFDAKAPSFRHEAYEAYKAGRAPTPEDFPRQLALIKELVDLLGFTRLEVPGYEADDVLATLAKKAEKEGYEVRILTADRDLYQLVSDRVAVLHPEGHLITPEWLWEKYGLRPEQWVDFRALVGDPSDNLPGVKGIGEKTALKLLKEWGSLENLLKNLDRVKPENVREKIKAHLEDLRLSLELSRVRTDLPLEVDLAQGREPDREGLRAFLERLEFGSLLHEFGLLEAPAPLEEAPWPPPEGAFVGFVLSRPEPMWAELKALAACRDGRVHRAADPLAGLKDLKEVRGLLAKDLAVLASREGLDLVPGDDPMLLAYLLDPSNTTPEGVARRYGGEWTEDAAHRALLSERLHRNLLKRLEGEEKLLWLYHEVEKPLSRVLAHMEATGVRLDVAYLQALSLELAEEIRRLEEEVFRLAGHPFNLNSRDQLERVLFDELRLPALGKTQKTGKRSTSAAVLEALREAHPIVEKILQHRELTKLKNTYVDPLPSLVHPRTGRLHTRFNQTATATGRLSSSDPNLQNIPVRTPLGQRIRRAFVAEAGWALVALDYSQIELRVLAHLSGDENLIRVFQEGKDIHTQTASWMFGVPPEAVDPLMRRAAKTVNFGVLYGMSAHRLSQELAIPYEEAVAFIERYFQSFPKVRAWIEKTLEEGRKRGYVETLFGRRRYVPDLNARVKSVREAAERMAFNMPVQGTAADLMKLAMVKLFPRLREMGARMLLQVHDELLLEAPQARAEEVAALAKEAMEKAYPLAVPLEVEVGMGEDWLSAKG
Need primer to initiate [1]: yes

B2: phi6: RNA-dependent RNA polymerase (protein, UniProt P11124 2-665, looked up)
RNA-directed RNA polymerase: PRRAPAFPLSDIKAQMLFANNIKAQQASKRSFKEGAIETYEGLLSVDPRFLSFKNELSRYLTDHFPANVDEYGRVYGNGVRTNFFGMRHMNGFPMIPATWPLASNLKKRADADLADGPVSERDNLLFRAAVRLMFSDLEPVPLKIRKGSSTCIPYFSNDMGTKIEIAERALEKAEEAGNLMLQGKFDDAYQLHQMGGAYYVVYRAQSTDAITLDPKTGKFVSKDRMVADFEYAVTGGEQGSLFAASKDASRLKEQYGIDVPDGFFCERRRTAMGGPFALNAPIMAVAQPVRNKIYSKYAYTFHHTTRLNKEEKVKEWSLCVATDVSDHDTFWPGWLRDLICDELLNMGYAPWWVKLFETSLKLPVYVGAPAPEQGHTLLGDPSNPDLEVGLSSGQGATDLMGTLLMSITYLVMQLDHTAPHLNSRIKDMPSACRFLDSYWQGHEEIRQISKSDDAILGWTKGRALVGGHRLFEMLKEGKVNPSPYMKISYEHGGAFLGDILLYDSRREPGSAIFVGNINSMLNNQFSPEYGVQSGVRDRSKRKRPFPGLAWASMKDTYGACPIYSDVLEAIERCWWNAFGESYRAYREDMLKRDTLELSRYVASMARQAGLAELTPIDLEVLADPNKLQYKWTEADVSANIHEVLMHGVSVEKTERFLRSVMPR
Need primer to initiate (reverse transcriptases and RNA-dependent RNA polymerases): no
